Experimental data: PubChem BioAssay AID652243 (Drosophila RNAi Screening Center, 2013)

- Screen: 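Knock-downs that decrease or increase androgen receptor reporter signal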 (primary screen)
- Cells: Drosophila S2R+ cells
- Knock-down reagent: long dsRNA against Drosophila genes
- Time to read-out: 72 h (48 h, then 24 h hormone)
- Challenge: synthetic androgen R1881 at 10 nM for 24 h
- Measured: 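Firefly light from an androgen-responsive reporter and Renilla control light per well, raw and unnormalised, for each of two replicates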
- Reading the numbers: firefly reporter light: higher = more light from androgen-responsive reporter; Renilla control light: higher = more constitutive control signal (cell number, transfection)
- Active means: 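Across duplicate plates, a knock-down whose log firefly/Renilla ratio shifted a set fold down or up from the GFP/LacZ control mean was a hit; the downward cut appears as both 1.5 and 3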
- Meaning of the calls: active = hit: reporter lowered or raised; inactive = no hit
The screen tested about 24,000 reagents; shown is a random part of those that have a named target and a result. Of all reagents, 246 (1%) are marked active. 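Plates not normalised; calls are printed but the firefly/Renilla ratio behind them is not deposited; fold cut for lowering reported inconsistently.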 The raw values are shown without normalisation. Names joined by + are all predicted targets of the reagent. Not stated in the record: the amount of reagent.

| gene | dsRNA | firefly reporter light, replicate 1 | firefly reporter light, replicate 2 | Renilla control light, replicate 1 | Renilla control light, replicate 2 | Call |
| --- | --- | --- | --- | --- | --- | --- |
| mRpS24 | DRSC28886 | 6.29e5 | 5.12e5 | 1.14e6 | 1.17e6 | inactive |
| peg | DRSC15216 | 4.45e5 | 5.73e5 | 1.34e6 | 1.62e6 | inactive |
| peg | DRSC26737 | 3.30e5 | 3.14e5 | 2.30e5 | 1.73e5 | inactive |
| CG14966 | DRSC08425 | 83529 | 81174 | 9.28e5 | 1.22e6 | inactive |
| CG8675 | DRSC20117 | 1.59e5 | 1.02e5 | 9.57e5 | 7.35e5 | inactive |
| CG8675 | DRSC27658 | 4.34e5 | 4.66e5 | 4.68e5 | 9.81e5 | inactive |
| Cyp6g1 | DRSC07386 | 8.78e5 | 6.82e5 | 1.61e6 | 1.29e6 | inactive |
| IFT52 | DRSC03271 | 2.30e5 | 2.06e5 | 1.90e6 | 1.16e6 | inactive |
| IFT52 | DRSC28697 | 4.16e5 | 3.52e5 | 1.46e6 | 1.43e6 | inactive |
| CG3386 | DRSC08566 | 39243 | 65428 | 6.56e5 | 6.75e5 | inactive |
| CG3386 | DRSC28282 | 2.78e5 | 4.95e5 | 8.21e5 | 1.81e6 | inactive |
| SMC2 | DRSC07544 | 1.29e6 | 8.77e5 | 2.00e6 | 1.37e6 | inactive |
| SMC2 | DRSC29763 | 5.25e5 | 2.82e5 | 1.42e6 | 1.22e6 | inactive |
| Orc5 | DRSC03390 | 2.50e5 | 1.90e5 | 1.25e6 | 1.62e6 | inactive |
| Orc5 | DRSC28207 | 6.40e5 | 5.82e5 | 1.48e6 | 1.39e6 | inactive |
| SiaT | DRSC04494 | 1.21e5 | 1.32e5 | 1.20e6 | 9.31e5 | inactive |
| Sil1 | DRSC14242 | 82020 | 25645 | 5.12e5 | 2.44e5 | inactive |
| DCTN3-p24 | DRSC04592 | 6.94e5 | 5.97e5 | 6.58e5 | 9.11e5 | inactive |
| DCTN3-p24 | DRSC29156 | 4.62e5 | 4.73e5 | 1.24e6 | 1.17e6 | inactive |
| CG11226 | DRSC11639 | 1.56e5 | 1.36e5 | 1.56e6 | 1.69e6 | inactive |
| anne | DRSC17103 | 8.41e5 | 5.15e5 | 1.43e6 | 7.13e5 | inactive |
| anne | DRSC29952 | 4.37e5 | 3.52e5 | 1.18e6 | 1.11e6 | inactive |
| eIF3g1 | DRSC18427 | 67966 | 48999 | 3.25e5 | 2.77e5 | inactive |
| eIF3g1 | DRSC29282 | 1.01e6 | 1.06e6 | 9.16e5 | 8.85e5 | inactive |
| CG5050 | DRSC02807 | 1.95e5 | 2.03e5 | 2.11e6 | 2.01e6 | inactive |
| CG5065 | DRSC06912 | 77399 | 72102 | 1.64e6 | 1.64e6 | inactive |
| Mdr49 | DRSC07466 | 9.16e5 | 1.17e6 | 2.00e6 | 1.90e6 | inactive |
| Mdr49 | DRSC24065 | 4.78e5 | 3.32e5 | 3.94e5 | 3.98e5 | inactive |
| Gr97a | DRSC13802 | 63082 | 2.45e5 | 89704 | 3.45e5 | inactive |
| CG3632 | DRSC19871 | 1.16e5 | 1.03e5 | 6.62e5 | 6.18e5 | inactive |
| CG3632 | DRSC36820 | – | – | – | – | inactive |
| CG3632 | DRSC36821 | – | – | – | – | inactive |
| CG15200 | DRSC19647 | 4.47e5 | 4.61e5 | 3.31e6 | 3.34e6 | inactive |
| CG15200 | DRSC24618 | 8.95e5 | 9.92e5 | 9.96e5 | 7.81e5 | inactive |
| Caf1-55 | DRSC16596 | 2.25e5 | 2.28e5 | 7.04e5 | 7.26e5 | inactive |
| CG6325 | DRSC16020 | 97925 | 35784 | 9.40e5 | 5.12e5 | inactive |
| alpha-Est7 | DRSC12619 | 5.13e5 | 4.71e5 | 2.72e6 | 3.61e6 | inactive |
| alpha-Est7 | DRSC27539 | 1.76e5 | 2.49e5 | 5.63e5 | 9.66e5 | inactive |
| CG42827 | DRSC16116 | 2.34e5 | 2.74e5 | 2.25e6 | 2.60e6 | inactive |
| Grik | DRSC15846 | 64346 | 87702 | 6.29e5 | 7.96e5 | inactive |
| Grik | DRSC15847 | 3.94e5 | 3.84e5 | 2.60e6 | 2.44e6 | inactive |
| Grik | DRSC26067 | 3.06e5 | 2.49e5 | 6.40e5 | 6.52e5 | inactive |
| CG32409 | DRSC08780 | 2.65e5 | 3.78e5 | 2.75e6 | 2.31e6 | inactive |
| CG32409 | DRSC25913 | 4.27e5 | 3.61e5 | 5.99e5 | 5.24e5 | inactive |
| NimC1 | DRSC01879 | 1.21e5 | 1.61e5 | 1.07e6 | 1.27e6 | inactive |
| BEAF-32 + CG42254 (retired record) | DRSC05503 | 1.10e5 | 1.23e5 | 2.47e5 | 1.64e5 | inactive |
| CG33309 | DRSC01421 | 2.25e5 | 2.06e5 | 7.70e5 | 7.89e5 | inactive |
| Vps33B | DRSC15722 | 93786 | 85333 | 7.17e5 | 6.21e5 | inactive |
| Mst36Fb | DRSC28786 | 9.28e5 | 1.13e6 | 1.45e6 | 1.18e6 | inactive |
| CG31245 | DRSC15498 | 2.53e5 | 2.41e5 | 3.36e6 | 3.71e6 | inactive |
| Cp15 | DRSC11118 | 2.63e5 | 1.62e5 | 2.90e6 | 1.43e6 | inactive |
| Cp15 | DRSC28629 | 5.39e5 | 5.42e5 | 1.35e6 | 1.50e6 | inactive |
| Gr85a | DRSC12760 | 68773 | 97051 | 2.57e5 | 1.31e5 | inactive |
| Cad96Ca | DRSC14220 | 1.11e5 | 1.13e5 | 1.90e6 | 1.85e6 | inactive |
| Cad96Ca | DRSC16693 | 2.08e5 | 2.51e5 | 2.02e6 | 2.21e6 | inactive |
| Cad96Ca | DRSC36738 | – | – | – | – | inactive |
| Cad96Ca | DRSC36739 | – | – | – | – | inactive |
| Naa15-16 | DRSC19440 | 4.24e5 | 4.41e5 | 2.39e6 | 3.11e6 | inactive |
| Naa15-16 | DRSC22846 | 5.24e5 | 8.56e5 | 3.18e5 | 4.72e5 | inactive |

Reformatted: entries from further up
gene,dsRNA,"firefly reporter light, replicate 1","firefly reporter light, replicate 2","Renilla control light, replicate 1","Renilla control light, replicate 2",Call
DCTN3-p24,DRSC29156,4.62e5,4.73e5,1.24e6,1.17e6,inactive
CG11226,DRSC11639,1.56e5,1.36e5,1.56e6,1.69e6,inactive
anne,DRSC17103,8.41e5,5.15e5,1.43e6,7.13e5,inactive
anne,DRSC29952,4.37e5,3.52e5,1.18e6,1.11e6,inactive
eIF3g1,DRSC18427,67966,48999,3.25e5,2.77e5,inactive
eIF3g1,DRSC29282,1.01e6,1.06e6,9.16e5,8.85e5,inactive
